Results taken from paper doi:10.1101/2021.03.11.435010 (bioRxiv, 2021).

Target: RPB4 (Sus scrofa domesticus)
Experiment: cryo-EM structure

binding: binds
B1: MED22 (protein, UniProt Q15528 1-200)
chain: MAQQRALPQSKETLLQSYNKRLKDDIKSIMDNFTEIIKTAKIEDETQVSRATQGEQDNYEMHVRAANIVRAGESLMKLVSDLKQFLILNDFPSVNEAIDQRNQQLRTLQEECDRKLITLRDEISIDLYELEEEYYSSSSSLCEANDLPLCEAYGRLDLDTDSADGLSAPLLASPEPSAGPLQVAAPAHSHAGGPGPTEHA

Results are given in words; binding and its absence hold for the method and conditions named. Binding calls can cover weak binding; strength is not graded here.
